Assay results taken from PubChem BioAssay AID1745850 (National Center for Advancing Translational Sciences (NCATS), 2022).
Screen size: about 2,100 compounds; about 260 (12%) were called active. The shares of active, inactive and inconclusive entries below differ from those in the screen. Calls follow the shape of the dose curve; as a rule, active = well fitted cell-killing curve with a large enough effect; inconclusive = small, poorly fitted or top-dose-only effect, or effect the other way; inactive = flat fitted curve, though single readings scatter. A potency beside an inconclusive call is a rough fit, not a confirmed value.

Test: Viability Counterscreen for Confirmatory qHTS for Inhibitors of ATXN expression; also: nearly all actives have a fitted effect of over 50% in size
Settings: HEK-293 ATXN2-luc cells viability, CellTiter-Fluor, 24 h; activity change, negative = cytotoxicity: at 11.5 µM (top of the series) unless noted
Method in brief: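 Cells with an ATXN2-luciferase reporter were dosed in a dilution series for 24 h at 37 degrees C. Viability was read first with Gly-Phe-AFC at 25 uM final (fluorescence, ex 405/em 540), then SteadyGlo luminescence. Medium-only wells defined 100% inhibition.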
Potency is read from the fitted curve at half-maximal effect.

| SMILES | activity change, negative = cytotoxicity | Potency |
| --- | --- | --- |
| O=C1CN(C(=O)c2c(F)cccc2F)C(c2ccc(F)cc2)c2cc(Br)ccc2N1 (stereo not given) | inactive: -19.7% |  |
| O=C(c1cc(COc2cccc(C(F)(F)F)c2)on1)N1CCC(c2ccncc2)CC1 | inactive: -15.7% |  |
| Cc1ccc2ccc(C(Nc3ccccn3)c3ccccc3)c(O)c2n1 (stereo not given) |  | inconclusive: 35.5 µM [cytotoxic, single point] |
| O=C(Nc1cccc(Br)c1)Oc1cccc2cccnc12 | inactive: -27.9% [at 57.5 µM] |  |
| Cc1ccc(N=Nc2ccc(O)c3ncccc23)cc1 |  | active: 10 µM |
| Cc1ncc(CO)c(/C=N/NC(=O)c2cccc(S(=O)(=O)N3CCCC3)c2)c1O |  | inconclusive: 39.8 µM [cytotoxic, single point] |
| Clc1ccc2nc(-c3ccccn3)c(Nc3ccc4c(c3)OCO4)n2c1 |  | inconclusive: 39.8 µM [cytotoxic, single point] |
| Cc1cc(C(=O)N/N=C/c2cc(Br)ccc2OC(=O)c2ccccc2)n[nH]1 | inactive: -18.4% |  |
| CCn1c2ccccc2c2cc(C3C(C#N)=C(N)Oc4n[nH]c(COC)c43)ccc21 (stereo not given) |  | inconclusive: 10 µM [cytotoxic, partial curve] |
| Cc1nn2c(NCc3ccccn3)c3c(nc2c1-c1ccccc1)CCC3 |  | active: 11.2 µM |
| CCCCC(=O)NC(c1ccc(OC)c(OC)c1)c1ccc2cccnc2c1O (stereo not given) |  | inconclusive: 8.91 µM [cytotoxic, full curve] |
| O=C(Nc1nnc(-c2ccc(F)cc2)o1)c1cc(Cl)sc1Cl |  | inconclusive: 39.8 µM [cytotoxic, single point] |
| CCCC1CCC(c2ccc(C(=O)NN)cc2)CC1 (stereo not given) | inactive: -2.67% |  |
| Cc1ccn2c(Nc3ccccc3C)c(-c3ccccn3)nc2c1 |  | inconclusive: 10 µM [cytotoxic, partial curve] |
| C=CCn1c(C)c(/C=C/c2cc[n+](C)cc2)c2ccccc21 |  | inconclusive: 2.24 µM [cytotoxic, partial curve, poor fit] |
| Cc1ccccc1OCC(=O)N/N=C/c1cccc2cccnc12 |  | inconclusive: 35.5 µM [cytotoxic, single point] |
| Cc1cc(C)cc(C(=O)NC(=S)Nc2ccc(-c3cc4ccccc4oc3=O)cc2)c1 |  | inconclusive: 28.2 µM [cytotoxic, partial curve, poor fit] |
| Nc1ccn([C@@H]2O[C@H](CO)[C@@H](O)C2O)c(=O)n1 (stereo not given in full) |  | inconclusive: 14.1 µM [cytotoxic, partial curve, poor fit] |
| O=C(Nc1cccc(S(=O)(=O)N2CCOCC2)c1)c1ccc2c(=O)n3c(nc2c1)CCCCC3 | inactive: -27.9% |  |
| O=C(NN=Cc1ccccc1O)c1cccc([N+](=O)[O-])c1 |  | inconclusive: 8.91 µM [cytotoxic, full curve] |
| Cc1ccc(F)cc1-c1cc2nc(NCCCN(C)C)n(C)c(=O)c2s1 |  | inconclusive: 39.8 µM [cytotoxic, single point] |
| CC(O)CNCCNCc1c(OCc2ccccc2)ccc2ccccc12 (stereo not given) |  | inconclusive: 31.6 µM [cytotoxic, single point] |
| O=C(NCc1ccccc1)c1ccc(C(=O)N(C2CCCCC2)C2CCCCC2)cc1 |  | inconclusive: 25.1 µM [cytotoxic, single point] |
| Cc1ccc(OCC(=O)N/N=C/c2cccc3cccnc23)cc1 |  | inconclusive: 31.6 µM [cytotoxic, single point] |

| SMILES | activity change, negative = cytotoxicity | Potency |
| --- | --- | --- |
| COc1ccc(C(=O)NCC(=O)N/N=C/c2ccc([N+](=O)[O-])s2)cc1OC |  | active: 22.4 µM |
| O=C(N/N=C\c1c(O)ccc2ccccc12)c1ccc(S(=O)(=O)N2CCCCC2)cc1 | inactive: -12.7% [at 57.5 µM] |  |
| CC(=O)Nc1ccc(N(CC(O)Cn2c3ccccc3c3ccccc32)S(=O)(=O)c2ccc(C)cc2)cc1 (stereo not given) |  | inconclusive: 20 µM [cytotoxic, partial curve] |
| CCN1CCN(CCCNC(=O)c2ccc(/C=C3/Sc4ccccc4N(Cc4ccccc4F)C3=O)cc2)CC1 |  | inconclusive: 25.1 µM [cytotoxic, single point] |
| CC1(C(=O)Nc2cnc3ccccc3c2)CCN1C(=O)c1ccccc1CCc1ccccc1 (stereo not given) |  | inconclusive: 35.5 µM [cytotoxic, single point] |
| CS(=O)(=O)Nc1ccccc1C(=O)Nc1cc(Cl)cc(Cl)c1 |  | inconclusive: 3.98 µM [cytotoxic, single point] |
| Cc1cc(NCc2ccccn2)n2nc(C)c(-c3ccc(Cl)cc3)c2n1 |  | active: 14.1 µM |
| O=C(CSc1nc2ncc(Br)cc2[nH]1)Nc1ccccc1-c1ccccc1 | inactive: -20.4% [at 57.5 µM] |  |
| c1ccc(CN=C(NCc2ccccc2)NCc2ccccc2)cc1 |  | active: 31.6 µM |
| COc1cc2nc(CN(C)Cc3ccc(SC)cc3)[nH]c(=O)c2cc1OC | inactive: -14.4% [at 57.5 µM] |  |
| Cc1ccc(N(C)S(=O)(=O)c2cccc(C(=O)OCC(=O)c3c(N)n(C)c(=O)n(C)c3=O)c2)cc1 |  | inconclusive: 39.8 µM [cytotoxic, single point] |
| Cc1ccc(S(=O)(=O)c2nc(NCc3ccc4c(c3)OCO4)sc2Cl)cc1 | inactive: -19.2% [at 57.5 µM] |  |
| O=C(Nc1cccc(C(F)(F)F)c1)Oc1ccc(Cl)c2cccnc12 | inactive: -21.6% |  |
| O=C(NN=Cc1ccc(O)cc1O)c1ccccc1NS(=O)(=O)c1cccs1 | inactive: -21.2% |  |
| Cc1cccc(NC(=O)c2ccc(S(=O)(=O)N(C)c3ccccc3)cc2)n1 |  | inconclusive: 39.8 µM [cytotoxic, partial curve, poor fit] |
| O=C(C1CC(=O)N(c2ccc3c(c2)OCCO3)C1)N1CCN(c2ccccc2)CC1 (stereo not given) | inactive: -6.33% |  |
| Cc1cc(SCC(=O)NN)c2cc(Br)ccc2n1 | inactive: -20.4% [at 57.5 µM] |  |
| O=c1c2c(-c3ccccc3)csc2nc2c3ccccc3c(NCCN3CCOCC3)nn12 |  | inconclusive: 7.08 µM [cytotoxic, single point] |
| O=C(CNC(=O)c1ccccc1Br)N/N=C/c1ccccc1O |  | inconclusive: 28.2 µM [cytotoxic, single point] |
| COc1ccc(N2CCN(c3cc(C)nc4ccc(OC)cc34)CC2)cc1 | inactive: -28.2% |  |
| COC(=O)c1ccsc1NC(=O)CN1CCN(Cc2ccc3c(c2)OCO3)CC1 | inactive: -20.4% [at 57.5 µM] |  |
| CCN(CC)S(=O)(=O)c1cccc(C(=O)N/N=C(\C)c2ccc(O)cc2O)c1 | inactive: -17.5% [at 57.5 µM] |  |
| CN1C/C(=C/c2cccnc2)C(=O)/C(=C/c2cccnc2)C1 | inactive: -7.06% |  |
| Cc1c(C(=O)Nc2ccc(-c3nnc4n3CCCCC4)cc2)oc2c1ccc1ccccc12 |  | inconclusive: 5.62 µM [cytotoxic, single point] |

| SMILES | activity change, negative = cytotoxicity | Potency |
| --- | --- | --- |
| CN(C)S(=O)(=O)c1cccc(N2C(=O)CC3(CCCCC3)CC2=O)c1 | inactive: -6.16% |  |
| CC1=CC(C)(C)Nc2ccc(OC(=O)CN3C(=O)CCC3=O)cc21 |  | inconclusive: 7.08 µM [cytotoxic, single point] |
| CN1CCN(c2ccc(S(=O)(=O)N3CCCCC3)cc2NC(=O)/C=C/c2ccc(Cl)c([N+](=O)[O-])c2)CC1 |  | inconclusive: 7.08 µM [cytotoxic, single point] |
| Cc1ccc(S(=O)(=O)Nc2cccc3cccnc23)c([N+](=O)[O-])c1 |  | inconclusive: 20 µM [cytotoxic, partial curve, poor fit] |
| O=C(CNc1ccccc1)N/N=C/c1c(O)ccc2ccccc12 |  | inconclusive: 2.24 µM [cytotoxic, partial curve, poor fit] |
| O=c1c2c(nc3c(-c4ccc(Cl)cc4)c[nH]n13)CCC2 | inactive: -24.2% |  |
| Cc1cc(=O)[nH]c(N=N/C(=N/Nc2ccccc2C)c2ccccc2)n1 |  | active: 12.6 µM |
| COc1ccc(NS(=O)(=O)c2ccc(NC(=O)c3ccc(CN4CCOCC4)cc3)cc2)cc1 |  | inconclusive: 35.5 µM [cytotoxic, partial curve, poor fit] |
| Fc1ccc(Nc2nnc(C(F)(F)F)s2)cc1Cl |  | inconclusive: 28.2 µM [cytotoxic, single point] |
| C=CCn1c(COc2ccccc2)nnc1SC(C)C(=O)N/N=C/c1cc(Cl)ccc1O (stereo not given) |  | inconclusive: 10 µM [cytotoxic, partial curve] |
| CN(Cc1ccccc1)C(=O)c1ccc(Nc2nc(C(N)Cc3ccccc3)cs2)nc1 (stereo not given) |  | active: 14.1 µM |
| CCC(=O)NC(c1ccco1)c1cc(Cl)c2cccnc2c1O (stereo not given) |  | inconclusive: 3.16 µM [cytotoxic, partial curve, poor fit] |
| NC(Cc1ccccc1)c1csc(Nc2ccc(C(F)(F)F)cn2)n1 (stereo not given) |  | inconclusive: 39.8 µM [cytotoxic, single point] |
| CC(C)(C)c1cc(C(=O)NNc2cc(C(F)(F)F)ccc2Cl)n(Cc2ccccc2)n1 |  | inconclusive: 39.8 µM [cytotoxic, single point] |
| Cc1cc(NC(=O)CSc2nccn2-c2cccc(C)c2C)no1 | inactive: -14.2% |  |
| O=C(NNC(=O)C(c1ccccc1)c1ccccc1)c1ccccn1 |  | inconclusive: 10 µM [cytotoxic, partial curve] |
| CCOC(=O)N1CCN(S(=O)(=O)c2ccc(C(=O)NNc3nc4c(C)cc(C)cc4s3)cc2)CC1 | inactive: -28.2% |  |
| O=C(Nc1nc(-c2ccccc2)cs1)c1ccccc1NS(=O)(=O)c1ccc(F)cc1 |  | inconclusive: 6.31 µM [cytotoxic, partial curve] |
| O=C(NNc1nc2ccc(Cl)cc2s1)c1cc(-c2cccs2)nc2ccccc12 |  | inconclusive: 3.55 µM [cytotoxic, single point] |
| Cc1ccc(C(=O)NC(C)CCc2ccccc2)cc1S(=O)(=O)N1CCOCC1 (stereo not given) | inactive: -26% [at 57.5 µM] |  |
| COc1ccc(NC(C)C(=O)N/N=C/c2c(O)ccc3ccccc23)cc1 (stereo not given) |  | inconclusive: 10 µM [cytotoxic, partial curve] |
| CC1CCCCN1C(=O)C1CCN(c2nc(-c3ccccc3)nc3c2CCC3)CC1 (stereo not given) |  | inconclusive: 25.1 µM [cytotoxic, partial curve] |
